According to patent US20260265233A1, “BENZOTHIOPHENE DERIVATIVES AS RXFP1 AGONISTS” (BRISTOL-MYERS SQUIBB COMPANY, priority 2021, published 2026):
The structures given here were assigned with low confidence; some may be wrong.

Chains of the proteins cited; added tags and fusions are not shown.
UniProt Q9HBX9, whole entry: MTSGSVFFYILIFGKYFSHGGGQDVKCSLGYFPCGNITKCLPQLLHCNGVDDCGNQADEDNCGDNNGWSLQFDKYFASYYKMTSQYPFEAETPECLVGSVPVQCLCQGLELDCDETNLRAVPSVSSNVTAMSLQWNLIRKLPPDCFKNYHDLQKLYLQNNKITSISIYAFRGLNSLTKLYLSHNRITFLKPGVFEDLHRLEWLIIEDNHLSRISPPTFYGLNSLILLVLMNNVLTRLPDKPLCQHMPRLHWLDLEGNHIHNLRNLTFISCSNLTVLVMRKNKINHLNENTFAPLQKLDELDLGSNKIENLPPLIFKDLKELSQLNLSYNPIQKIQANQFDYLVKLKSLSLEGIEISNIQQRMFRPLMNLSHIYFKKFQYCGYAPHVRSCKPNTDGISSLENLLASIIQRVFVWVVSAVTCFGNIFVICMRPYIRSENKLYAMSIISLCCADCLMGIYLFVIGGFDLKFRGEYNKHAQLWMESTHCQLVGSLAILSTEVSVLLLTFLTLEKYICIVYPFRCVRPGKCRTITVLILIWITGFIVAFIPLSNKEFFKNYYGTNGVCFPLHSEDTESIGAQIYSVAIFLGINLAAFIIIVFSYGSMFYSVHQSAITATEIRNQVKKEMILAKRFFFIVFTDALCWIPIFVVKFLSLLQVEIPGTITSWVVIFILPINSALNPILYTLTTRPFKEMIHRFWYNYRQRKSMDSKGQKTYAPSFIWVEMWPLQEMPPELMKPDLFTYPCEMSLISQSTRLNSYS

Biological target: human RXFP1 (Homo sapiens, UniProt Q9HBX9)
Test: hRXFP1 HEK293 cAMP assay (HTRF)
Conditions: read-out: cAMP hRXFP1 HEK293 Assay EC50; HEK293 cells stably expressing human RXFP1; 30 min at rt; intracellular cAMP by HTRF
Protocol: RXFP1 Cyclic Adenosine Monophosphate (cAMP) Assays. Human embryonic kidney cells 293 (HEK293) cells and HEK293 cells stably expressing human RXFP1, were cultured in MEM medium supplemented with 10% qualified FBS, and 300 μg/ml hygromycin (Life Technologies). Cells were dissociated and suspended in assay buffer. The assay buffer was HBSS buffer (with calcium and magnesium) containing 20 mM HEPES, 0.05% BSA, and 0.5 mM IBMX. Cells (3000 cells per well, except 1500 cell per well for HEK293 cells stably expressing human RXFP1) were added to 384-well Proxiplates (Perkin-Elmer). Cells were immediately treated with test compounds in DMSO (2% final) at final concentrations in the range of 0.010 nM to 50 μM. Cells were incubated for 30 min at rt. The level of intracellular cAMP was determined using the HTRF HiRange cAMP assay reagent kit (Cisbio) according to manufacturer's instructions. Solutions of cryptate conjugated anti-cAMP and d2 fluorophore-labelled cAMP were made in a supplied lysis buffer separately. […] After a 1 h rt incubation, time-resolved fluorescence intensity was measured using the Envision (Perkin-Elmer) at 400 nm excitation and dual emission at 590 nm and 665 nm. […] The potency and activity of a compound to […] cAMP production was then determined by fitting to a 4-parametric logistic equation from a plot of cAMP level versus compound concentrations. […]

COc1ccc(S(=O)(=O)N2CCC(C(=O)O)CC2)cc1C(=O)Nc1c(C(=O)Nc2ccc(F)c(C(F)(F)F)c2)sc2cc(C(F)(F)F)ccc12
EC50: 3.58 µM
